The results in this text go back to article PMC11830799.

No constants are given. Whether binding was seen depends on the method and setting. In cells and extracts the contact can be indirect. Some binding calls cover weakened binding; strength is not graded here. For some assays here: Sequences can lack the tags named with a protein.

For experiment [1], the target named is T1, endogenous MAS receptor of mouse kidney (mouse (endogenous in kidney tissue)) (UniProt P30554).
T1 sequence: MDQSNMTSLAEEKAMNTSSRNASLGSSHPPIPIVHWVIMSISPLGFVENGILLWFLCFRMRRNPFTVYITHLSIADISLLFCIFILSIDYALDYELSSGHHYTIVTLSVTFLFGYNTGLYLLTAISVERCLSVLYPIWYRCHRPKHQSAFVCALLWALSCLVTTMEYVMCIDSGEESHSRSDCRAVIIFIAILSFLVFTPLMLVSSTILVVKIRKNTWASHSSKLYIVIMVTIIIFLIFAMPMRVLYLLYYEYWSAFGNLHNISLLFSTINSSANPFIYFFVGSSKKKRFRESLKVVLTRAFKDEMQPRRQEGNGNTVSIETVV
Description: co-IP; endogenous proteins in mouse kidney tissue.

The target of experiment [2] is T2, GFP-tagged full-length wild-type MAS receptor (UniProt P04201).
T2 sequence: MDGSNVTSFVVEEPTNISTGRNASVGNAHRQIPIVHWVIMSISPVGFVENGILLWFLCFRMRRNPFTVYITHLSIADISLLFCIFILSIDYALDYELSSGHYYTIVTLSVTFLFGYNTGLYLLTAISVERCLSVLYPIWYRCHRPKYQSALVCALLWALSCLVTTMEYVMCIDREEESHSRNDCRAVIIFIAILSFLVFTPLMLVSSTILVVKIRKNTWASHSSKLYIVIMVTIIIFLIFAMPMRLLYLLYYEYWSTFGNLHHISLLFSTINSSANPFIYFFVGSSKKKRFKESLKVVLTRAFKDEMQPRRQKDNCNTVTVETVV
Put plainly: co-IP; COS-7 cells transfected with GFP-MAS WT or GFP-MAS V325A with or without Flag-MAGI3, Western blot. On the technique in general: Immunoblotting shows a protein as a band on a membrane.

B1: endogenous MAGI3 of mouse kidney (protein, UniProt Q9EQJ9 1-1476)
chain: MSKTLKKKKHWLSKVQECAVSWAGPPGDLGAEIRGGAERGEFPYLGRLRDEAGGGGGTCCVVSGKAPSPGDVLLEVNGTPVSGLTNRDTLAVIRHFREPIRLKTVKPGKVINKDLRHYLSLQFQKGSIDHKLQQVIRDNLYLRTIPCTTRAPRDGEVPGVDYNFISVEQFKALEESGALLESGTYDGNFYGTPKPPAEPSPFQPDPVDQVLFDNEFDTESQRKRTTSVSKMERMDSSLPEEEEDEDKEAVNGSGSMETREMHSETSDCWMKTVPSYNQTNSSMDFRNYMMRDENLEPLPKNWEMAYTDTGMIYFIDHNTKTTTWLDPRLCKKAKAPEDCEDGELPYGWEKIEDPQYGTYYVDHLNQKTQFENPVEEAKRKKQLGQAEIHSAKTDVERAHFTRDPSQLKGVLVRASLKKSTMGFGFTIIGGDRPDEFLQVKNVLKDGPAAQDGKIAPGDVIVDINGNCVLGHTHADVVQMFQLVPVNQYVNLTLCRGYPLPDDSEDPVVDIVAATPVINGQSLTKGETCMNTQDFKLGAMVLDQNGKSGQILASDRLNGPSESSEQRASLASSGSSQPELVTIPLIKGPKGFGFAIADSPTGQKVKMILDSQWCQGLQKGDIIKEIYHQNVQNLTHLQVVEVLKQFPVGADVPLLILRGGPCSPTKTAKTKTDTKENSGSLETINEPIPQPMPFPPSIIRSGSPKLDPSEVYLKSKTLYEDKPPNTKDLDVFLRKQESGFGFRVLGGDGPDQSIYIGAIIPLGAAEKDGRLRAADELMCIDGIPVKGKSHKQVLDLMTTAARNGHVLLTVRRKIFYGEKQPEDESHQAFSQNGSPRLNRAELPTRSAPQEAYDVTLQRKENEGFGFVILTSKSKPPPGVIPHKIGRVIDGSPADRCGGLKVGDHISAVNGQSIVDLSHDNIVQLIKDAGVTVTLTVVAEEEHHGPPSGTNSARQSPALQHRPMGQAQANHIPGDRIALEGEIGRDVCSSYRHSWSDHKHLAQPDTAVISVVGSRHNQSLGCYPVELERGPRGFGFSLRGGKEYNMGLFILRLAEDGPAIKDGRIHVGDQIVEINGEPTQGITHTRAIELIQAGGNKVLLLLRPGTGLIPDHGDWDTNSPSSSNVIYDEQPPPLPSSHSASTFEESHVPATEDSLTRVQICEKAEELKDTVQEKKSTLNGSQPEMKYQSVHKTMSKKDPPRGSGHGEKSRLKGENGVTRRGRSASPKKSVNRHSEEHLEKIPRPLKSDPKEKSRDRSLSPRKGESKGRLTIKAGSGQDPYRKDRGRSSSPKKQQKIGGNSLSNTEGKLSEAGSRRAAGHPRDSTEQLPDGREKSGVSRKDLKQSQPGKTRTKSPEKKSSKVDETSLPSKKTSSTAGRVVSEKEKGKKPTAGETSRETVEHTQISAKQLKQEAQEKTALGNADDHKGRESEVTDRCRERAGCTPQSSSLVKKAPITPGPWRVPRANKVTGTTGMADKQL
With B1, the binding entry in experiment [1] is given as “binds”.

B2: Flag-tagged full-length MAGI3 (protein, UniProt Q5TCQ9 1-1481)
chain: MSKTLKKKKHWLSKVQECAVSWAGPPGDFGAEIRGGAERGEFPYLGRLREEPGGGTCCVVSGKAPSPGDVLLEVNGTPVSGLTNRDTLAVIRHFREPIRLKTVKPGKVINKDLRHYLSLQFQKGSIDHKLQQVIRDNLYLRTIPCTTRAPRDGEVPGVDYNFISVEQFKALEESGALLESGTYDGNFYGTPKPPAEPSPFQPDPVDQVLFDNEFDAESQRKRTTSVSKMERMDSSLPEEEEDEDKEAINGSGNAENRERHSESSDWMKTVPSYNQTNSSMDFRNYMMRDETLEPLPKNWEMAYTDTGMIYFIDHNTKTTTWLDPRLCKKAKAPEDCEDGELPYGWEKIEDPQYGTYYVDHLNQKTQFENPVEEAKRKKQLGQVEIGSSKPDMEKSHFTRDPSQLKGVLVRASLKKSTMGFGFTIIGGDRPDEFLQVKNVLKDGPAAQDGKIAPGDVIVDINGNCVLGHTHADVVQMFQLVPVNQYVNLTLCRGYPLPDDSEDPVVDIVAATPVINGQSLTKGETCMNPQDFKPGAMVLEQNGKSGHTLTGDGLNGPSDASEQRVSMASSGSSQPELVTIPLIKGPKGFGFAIADSPTGQKVKMILDSQWCQGLQKGDIIKEIYHQNVQNLTHLQVVEVLKQFPVGADVPLLILRGGPPSPTKTAKMKTDKKENAGSLEAINEPIPQPMPFPPSIIRSGSPKLDPSEVYLKSKTLYEDKPPNTKDLDVFLRKQESGFGFRVLGGDGPDQSIYIGAIIPLGAAEKDGRLRAADELMCIDGIPVKGKSHKQVLDLMTTAARNGHVLLTVRRKIFYGEKQPEDDSSQAFISTQNGSPRLNRAEVPARPAPQEPYDVVLQRKENEGFGFVILTSKNKPPPGVIPHKIGRVIEGSPADRCGKLKVGDHISAVNGQSIVELSHDNIVQLIKDAGVTVTLTVIAEEEHHGPPSGTNSARQSPALQHRPMGQSQANHIPGDRSALEGEIGKDVSTSYRHSWSDHKHLAQPDTAVISVVGSRHNQNLGCYPVELERGPRGFGFSLRGGKEYNMGLFILRLAEDGPAIKDGRIHVGDQIVEINGEPTQGITHTRAIELIQAGGNKVLLLLRPGTGLIPDHGDWDINNPSSSNVIYDEQSPLPPSSHFASIFEESHVPVIEESLRVQICEKAEELKDIVPEKKSTLNENQPEIKHQSLLQKNVSKRDPPSSHGHSNKKNLLKVENGVTRRGRSVSPKKPASQHSEEHLDKIPSPLKNNPKRRPRDQSLSPSKGENKSCQVSTRAGSGQDQCRKSRGRSASPKKQQKIEGSKAPSNAEAKLLEGKSRRIAGYTGSNAEQIPDGKEKSDVIRKDAKQNQLEKSRTRSPEKKIKRMVEKSLPSKMTNKTTSKEVSENEKGKKVTTGETSSSNDKIGENVQLSEKRLKQEPEEKVVSNKTEDHKGKELEAADKNKETGRFKPESSSPVKKTLITPGPWKVPSGNKVTGTIGMAEKRQ
With B2, in experiment [2], the binding result is “binds”.
